Source: patent US7960415B2, “Caspase inhibitors and uses thereof” (Vertex Pharmaceutical Incoporated, priority 2003, dated 2011)
Some results were stated once for a whole list of compounds, not compound by compound.

Amino acid sequences for entries named in this document (tags omitted). Residues count along the entry.
UniProt Q14790, 385-479 limits assumed: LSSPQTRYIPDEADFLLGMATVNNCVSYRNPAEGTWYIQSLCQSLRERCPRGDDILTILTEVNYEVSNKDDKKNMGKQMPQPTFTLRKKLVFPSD
UniProt Q14790, 217-374 limits assumed: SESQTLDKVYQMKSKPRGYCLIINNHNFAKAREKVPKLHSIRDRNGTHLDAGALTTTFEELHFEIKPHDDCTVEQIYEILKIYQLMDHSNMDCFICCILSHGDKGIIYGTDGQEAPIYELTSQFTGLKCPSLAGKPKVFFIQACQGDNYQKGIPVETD

Assays:
Assay type in all cases: biochemical
[1] = target: T1, recombinant, purified human Caspase-1 (Homo sapiens, UniProt P29466); assay: Caspase enzyme assay, fluorogenic substrate cleavage (Caspase-1); settings: substrate Acetyl-Tyr-Val-Ala-Asp-amino-4-methylcoumarin
T1 sequence (P29466 120-297 limits assumed): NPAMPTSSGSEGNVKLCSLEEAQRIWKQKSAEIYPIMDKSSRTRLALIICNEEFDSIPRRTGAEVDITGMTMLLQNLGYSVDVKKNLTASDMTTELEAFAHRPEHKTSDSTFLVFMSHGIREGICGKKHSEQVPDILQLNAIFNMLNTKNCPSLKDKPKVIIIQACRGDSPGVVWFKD
T1 sequence (P29466 317-404 limits assumed): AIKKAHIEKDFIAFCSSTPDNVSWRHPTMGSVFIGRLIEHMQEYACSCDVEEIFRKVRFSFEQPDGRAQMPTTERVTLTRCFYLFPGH

[2] = target: recombinant, purified human Caspase-8 (Homo sapiens, UniProt Q14790); assay: Caspase enzyme assay, fluorogenic substrate cleavage (Caspase-8); settings: substrate Acetyl-Asp-Glu-Val-Asp-amino-4-methylcoumarin
[3] = target: T2, recombinant, purified human Caspase-3 (Homo sapiens, UniProt P42574); assay: Caspase enzyme assay, fluorogenic substrate cleavage (Caspase-3); settings: substrate Acetyl-Asp-Glu-Val-Asp-amino-4-methylcoumarin
T2 sequence (P42574 29-175 limits assumed): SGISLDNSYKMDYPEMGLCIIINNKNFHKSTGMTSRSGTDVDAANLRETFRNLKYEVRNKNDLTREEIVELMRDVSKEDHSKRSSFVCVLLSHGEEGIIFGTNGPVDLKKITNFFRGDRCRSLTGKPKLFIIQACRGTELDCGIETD
T2 sequence (P42574 176-277 limits assumed): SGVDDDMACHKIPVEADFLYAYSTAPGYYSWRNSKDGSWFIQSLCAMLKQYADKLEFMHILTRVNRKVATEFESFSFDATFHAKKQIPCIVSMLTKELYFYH

Row | SMILES | kinact, second order rate constant of caspase-1 inactivation [1] | kinact, second order rate constant of caspase-8 inactivation [2] | kinact, second order rate constant of caspase-3 inactivation [3]
1 | CC[C@@H](C(=O)N[C@@H](CC(=O)O)C(=O)COc1c(F)c(F)cc(F)c1F)n1cccc(NS(=O)(=O)CC)c1=O [Compound 18, (S,S)-3-[2-(3-Ethanesulfonylamino-2-oxo-2H-pyridin-1-yl)-butyrylamino]-4-oxo-5-(2,3,5,6-tetrafluoro-phenoxy)-pentanoic acid] | > 200,000 M^−1s^−1 | > 50,000 M^−1s^−1 | > 50,000 M^−1s^−1
2 | CCCS(=O)(=O)Nc1cccn([C@@H](CC)C(=O)N[C@@H](CC(=O)O)C(=O)COc2c(F)c(F)cc(F)c2F)c1=O [Compound 19, (S,S)-4-Oxo-3-{2-[2-oxo-3-(propane-1-sulfonylamino)-2H-pyridin-1-yl]-butyrylamino}-5-(2,3,5,6-tetrafluoro-phenoxy)-pentanoic acid] | > 200,000 M^−1s^−1 | > 50,000 M^−1s^−1 | > 50,000 M^−1s^−1
3 | CC[C@@H](C(=O)N[C@@H](CC(=O)O)C(=O)COc1c(F)c(F)cc(F)c1F)n1cccc(NS(=O)(=O)c2ccccc2)c1=O [Compound 21, (S,S)-3-[2-(3-Benzenesulfonylamino-2-oxo-2H-pyridin-1-yl)-butyrylamino]-4-oxo-5-(2,3,5,6-tetrafluoro-phenoxy)-pentanoic acid] | > 200,000 M^−1s^−1 | > 50,000 M^−1s^−1 | > 50,000 M^−1s^−1
4 | CCNC(=O)Nc1cccn([C@@H](CC)C(=O)N[C@@H](CC(=O)O)C(=O)COc2c(F)c(F)cc(F)c2F)c1=O [Compound 14, (S,S)-3-{2-[3-(3-Ethyl-ureido)-2-oxo-2H-pyridin-1-yl]-butyrylamino}-4-oxo-5-(2,3,5,6-tetrafluoro-phenoxy)-pentanoic acid] | > 200,000 M^−1s^−1 | > 50,000 M^−1s^−1 | > 50,000 M^−1s^−1
5 | CC[C@@H](C(=O)NC(CC(=O)O)C(=O)CF)n1cccc(NC(=O)c2c(Cl)cccc2Cl)c1=O (stereo partly drawn) [Compound 31, (S)-3-{2-[3-(2,6-Dichloro-benzoylamino)-2-oxo-2H-pyridin-1-yl]-butyrylamino}-5-fluoro-4-oxo-pentanoic acid] | > 200,000 M^−1s^−1 | > 50,000 M^−1s^−1 | > 50,000 M^−1s^−1
6 | CC[C@@H](C(=O)N[C@@H](CC(=O)O)C(=O)COc1c(F)c(F)cc(F)c1F)n1cc(C(F)(F)F)cc(NC(C)=O)c1=O [Compound 13, (S,S)-3-[2-(3-Acetylamino-2-oxo-5-trifluoromethyl-2H-pyridin-1-yl)-butyrylamino]-4-oxo-5-(2,3,5,6-tetrafluoro-phenoxy)-pentanoic acid] | > 200,000 M^−1s^−1 | > 50,000 M^−1s^−1 | > 50,000 M^−1s^−1
7 | CC(C)[C@@H](C(=O)N[C@@H](CC(=O)O)C(=O)COc1c(F)c(F)cc(F)c1F)n1cccc(NC(=O)Cc2ccccc2)c1=O [Compound 23, (S,S)-3-[3-Methyl-2-(2-oxo-3-phenylacetylamino-2H-pyridin-1-yl)-butyrylamino]-4-oxo-5-(2,3,5,6-tetrafluoro-phenoxy)-pentanoic acid] | > 200,000 M^−1s^−1 | > 50,000 M^−1s^−1 | > 50,000 M^−1s^−1
8 | CCC(=O)Nc1cccn([C@@H](CC)C(=O)NC(CC(=O)O)C(=O)CF)c1=O (stereo partly drawn) [Compound 29, (S)-5-Fluoro-4-oxo-3-[2-(2-oxo-3-propionylamino-2H-pyridin-1-yl)-butyrylamino]-pentanoic acid] | > 200,000 M^−1s^−1 | > 50,000 M^−1s^−1 | > 50,000 M^−1s^−1
9 | CC[C@@H](C(=O)NC(CC(=O)O)C(=O)CF)n1cccc(NC(=O)Cc2cccc(C)c2)c1=O (stereo partly drawn) [Compound 34, (S)-5-Fluoro-4-oxo-3-{2-[2-oxo-3-(2-m-tolyl-acetylamino)-2H-pyridin-1-yl]-butyrylamino}-pentanoic acid] | > 200,000 M^−1s^−1 | > 50,000 M^−1s^−1 | > 50,000 M^−1s^−1
10 | C[C@@H](C(=O)NC(CC(=O)O)C(=O)CF)n1cccc(NC(=O)Cc2ccccc2)c1=O (stereo partly drawn) [Compound 28, (S)-5-Fluoro-4-oxo-3-[2-(2-oxo-3-phenylacetylamino-2H-pyridin-1-yl)-propionylamino]-pentanoic acid] | > 200,000 M^−1s^−1 | > 50,000 M^−1s^−1 | > 50,000 M^−1s^−1
11 | CC[C@@H](C(=O)N[C@@H](CC(=O)O)C(=O)COc1c(F)c(F)cc(F)c1F)n1cccc(NC(C)=O)c1=O [Compound 1, (S,S)-3-[2-(3-Acetylamino-2-oxo-2H-pyridin-1-yl)-butyrylamino]-4-oxo-5-(2,3,5,6-tetrafluoro-phenoxy)-pentanoic acid] | > 200,000 M^−1s^−1 | > 50,000 M^−1s^−1 | > 50,000 M^−1s^−1
12 | CC[C@@H](C(=O)N[C@@H](CC(=O)O)C(=O)COc1c(F)c(F)cc(F)c1F)n1cccc(NC(=O)C(C)C)c1=O [Compound 5, (S,S)-3-[2-(3-Isobutyrylamino-2-oxo-2H-pyridin-1-yl)-butyrylamino]-4-oxo-5-(2,3,5,6-tetrafluoro-phenoxy)-pentanoic acid] | > 200,000 M^−1s^−1 | > 50,000 M^−1s^−1 | > 50,000 M^−1s^−1
13 | CC[C@@H](C(=O)N[C@@H](CC(=O)O)C(=O)COc1c(F)c(F)cc(F)c1F)n1cccc(NC(=O)OC)c1=O [Compound 17, (S,S)-3-[2-(3-Methoxycarbonylamino-2-oxo-2H-pyridin-1-yl)-butyrylamino]-4-oxo-5-(2,3,5,6-tetrafluoro-phenoxy)-pentanoic acid] | > 200,000 M^−1s^−1 | > 50,000 M^−1s^−1 | > 50,000 M^−1s^−1
14 | CCCNc1cccn([C@@H](CC)C(=O)N[C@@H](CC(=O)O)C(=O)COc2c(F)c(F)cc(F)c2F)c1=O [Compound 39, (S,S)-4-Oxo-3-[2-(2-oxo-3-propylamino-2H-pyridin-1-yl)-butyrylamino]-5-(2,3,5,6-tetrafluoro-phenoxy)-pentanoic acid] | > 200,000 M^−1s^−1 | > 50,000 M^−1s^−1 | > 50,000 M^−1s^−1
15 | CC[C@@H](C(=O)N[C@@H](CC(=O)O)C(=O)COc1c(F)c(F)cc(F)c1F)n1cccc(NS(=O)(=O)C(C)C)c1=O [Compound 20, (S,S)-4-Oxo-3-{2-[2-oxo-3-(propane-2-sulfonylamino)-2H-pyridin-1-yl]-butyrylamino}-5-(2,3,5,6-tetrafluoro-phenoxy)-pentanoic acid] | > 200,000 M^−1s^−1 | > 50,000 M^−1s^−1 | > 50,000 M^−1s^−1
16 | C[C@@H](C(=O)NC(CC(=O)O)C(=O)CF)n1cccc(NC(=O)c2c(Cl)cccc2Cl)c1=O (stereo partly drawn) [Compound 27, (S)-3-{2-[3-(2,6-Dichloro-benzoylamino)-2-oxo-2H-pyridin-1-yl]-propionylamino}-5-fluoro-4-oxo-pentanoic acid] | > 200,000 M^−1s^−1 | > 50,000 M^−1s^−1 | > 50,000 M^−1s^−1
17 | CC[C@@H](C(=O)N[C@@H](CC(=O)O)C(=O)COc1c(F)c(F)cc(F)c1F)n1cccc(NC(=O)c2cccnc2)c1=O [Compound 9, (S,S)-4-Oxo-3-(2-{2-oxo-3-[(pyridine-3-carbonyl)-amino]-2H-pyridin-1-yl}-butyrylamino)-5-(2,3,5,6-tetrafluoro-phenoxy)-pentanoic acid] | > 200,000 M^−1s^−1 | > 50,000 M^−1s^−1 | > 50,000 M^−1s^−1
18 | CC[C@@H](C(=O)N[C@@H](CC(=O)O)C(=O)COc1c(F)c(F)cc(F)c1F)n1cccc(NC(=O)c2ccco2)c1=O [Compound 7, (S,S)-3-(2-{3-[(Furan-2-carbonyl)-amino]-2-oxo-2H-pyridin-1-yl}-butyrylamino)-4-oxo-5-(2,3,5,6-tetrafluoro-phenoxy)-pentanoic acid] | > 200,000 M^−1s^−1 | > 50,000 M^−1s^−1 | > 50,000 M^−1s^−1
